For this test, the target named is Kinetoplast Polyadenylation Factor 4, C-terminally TAP-tagged (Trypanosoma brucei). Kind of test: co-IP.

No constants are given. Whether binding was seen depends on the method and setting. In cells and extracts the contact can be indirect. Binding calls can cover weak binding; strength is not graded here.

B1: MERS1 NUDIX hydrolase (PPsome subunit) (enzyme, UniProt B6SBM0 1-395)
chain: MRKQLFFTLARPCVAVGRRFISGDNKSIDSSAFISDDDALRGELASALDTEGHALPFDVHLQQPHSSGDGTAGDTSTIQLEKLSHPPARFDLLTNSFVYKWQTKAALARKVSGPMREWAAELKYRTGVHIELEPTYPERLSENAVKGSGSDDGDGTQWGAYETADDVDITVYLFGSERGIFNCHKLMEAAIQQDPVYVRLGIFRRLANSSEVEWLMLRRINRELRPPDIPPISLKLPGKWTLLYERYKEAAIRTLWEETGITVDASNVYPTGHLYQTVPQYYWRVPVRYFVAEVPSDIRVEGPQVVPLQYMRNWDARLLRQSPDPIDRAWAQLADPATGCAWMKASMIDQLQKPLRGDNYMAIRYTPPPYSNLQEVVGLGDGSITPSTGNGEDAS
Regarding B1, the binding entry is “binds”.

B2: KPAP1 poly(A) polymerase (enzyme, UniProt B3FB38 1-527)
chain: MRKFSAFRSGNTGVKRCITLPWKSSLPPKSDSQWEGLGKSVVRMALASDTGRSAFDECSTARQQLETLVQSTGYDASVFAFGGIVVMGLLEVGGDADFVGVADVEPGVAEAGEIVSRLSREMRRLGLKSSALPKARVPVIKVDRVSKSLPGTPLHHLSTCGIFQFTRQMNNNECISFKSRMEENFGAVNTEWSNNQQFSTVEFSSSSALVAALTEVKRHEGVDIPLRLPVDPRNGPELYRLSFDFCFSSVGLRNSYLLSDVLSKYVFSRHLLLLIKRWGRSSGVINSIDGLLASYALTVMCAHFLIKVGVIPKVSTLRSADEPQLLPPFPDYRPLHDGEDCDLAELGFLTAAFFEYYGAVFDYGKNVVCTTNINLLKKTMRWEKSPGTESGRPPFFEFAIKDPYGLDNIGRNLDSEATEYVRSAHSAALATLLQERGDPDFTVNIITKSPPRPARRSRTLASRGIASATYSSDQLEARHLLKKVAFHERRKSMERFGARAARHTEKQRVVSNVAKDVLGWIKCDNHQ
B2: the binding entry is “binds”.

The values above are taken from paper doi:10.1101/456418.
